The target in the assay is adrenomedullin receptors in the lungs of dogs (dog). The assay can be described thus: competition: displacement of iodine-labelled hAM from dog lungs.

These are yes or no findings as the source states them, for the method shown. Some entries that bind do so weakly or less than the wild type.

For the molecule TQAQLLRVGCVLGTCQVQNLSHRLWQLMGPAGRQDSAPVDPSSPHSY (peptide, UniProt Q7Z4H4 101-147, looked up) [hAM2], the binding result is given as “binds”.

The values above are taken from US20090028790A1 (INSTITUT DE CARDIOLOGIE DE MONTREAL, published 2009).
